Results deposited as PubChem BioAssay AID1224828 (NIAID, 2016).
Here is one part, drawn at random, of about 17,000 reagents. 762 of all reagents (4.5%) count as active. 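Active calls include both raised and lowered p65 entry, mostly lowered; wells with fewer than 50 cells lack a z-score.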 Raw values are not corrected between plates.

Screen: 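Find genes required for NF-kappaB p65 moving into the nucleus after LPS in mouse macrophages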 (primary screen)
Cell system: mouse RAW264.7 G9 macrophage reporter cells (GFP-p65, Tnf promoter-mCherry)
Knock-down reagent: siRNA pool against mouse genes, 100 nM
Timing: 2 days siRNA transfection, then 40 min LPS before fixation
Conditions: LPS (Salmonella minnesota R595) at 10 ng/ml
Measurement: 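Imaged p65 nuclear translocation ratio, normalised to the plate median, converted to robust z-scores and averaged across two replicates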
Direction: p65 translocation robust z-score: higher = more nuclear NF-kappaB p65 after LPS than the plate median; nuclear/cytoplasmic p65 ratio: higher = more nuclear NF-kappaB p65
Rule for the call: 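Active if robust z is above 3.3 (negative regulators) or below -1.56, the Tlr4 control median (positive regulators); activity score 50 or more; control wells not called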
Calls: active = hit (p65 shift raised or lowered); inactive = no clear change

gene	p65 translocation robust z-score	nuclear/cytoplasmic p65 ratio, rep 1	nuclear/cytoplasmic p65 ratio, rep 2	low cell count flag	call
Rac2	0.78	1.67	1.59	enough cells to score	inactive
Add1	-0.68	1.5	1.53	enough cells to score	inactive
Arnt	-0.26	1.58	1.58	enough cells to score	inactive
Vmn1r219		1.27	1.36	fewer than 50 cells per well; well left out of scoring	inactive
Nup107	0.21	1.82	1.49	enough cells to score	inactive
Sirt1	-0.98	1.4	1.43	enough cells to score	inactive
Psmb8		1.44	1.34	fewer than 50 cells per well; well left out of scoring	inactive
Fkbp9	2.91	1.74	2.12	enough cells to score	inactive
Gpat4	1.21	1.51	1.75	enough cells to score	inactive

Sorted by “nuclear/cytoplasmic p65 ratio, rep 1” (low to high): some entries from above
gene	p65 translocation robust z-score	nuclear/cytoplasmic p65 ratio, rep 1	nuclear/cytoplasmic p65 ratio, rep 2	low cell count flag	call
Psmb8		1.44	1.34	fewer than 50 cells per well; well left out of scoring	inactive
Gpat4	1.21	1.51	1.75	enough cells to score	inactive
Fkbp9	2.91	1.74	2.12	enough cells to score	inactive

The results go on:
gene	p65 translocation robust z-score	nuclear/cytoplasmic p65 ratio, rep 1	nuclear/cytoplasmic p65 ratio, rep 2	low cell count flag	call
Traf5	-0.44	1.45	1.44	enough cells to score	inactive
Dhx38	0.51	1.53	1.56	enough cells to score	inactive
Ppp6r2	-0.57	1.4	1.41	enough cells to score	inactive
Thy1	-0.22	1.47	1.5	enough cells to score	inactive
Snrpd1		1.17	1.02	fewer than 50 cells per well; well left out of scoring	inactive
Wnt3a	-0.19	1.47	1.59	enough cells to score	inactive
Tspan32	-0.73	1.33	1.37	enough cells to score	inactive
Vmn1r227		1.09	1.02	fewer than 50 cells per well; well left out of scoring	inactive
Spink5	-0.85	1.47	1.5	enough cells to score	inactive
Vmn1r83	-0.32	1.3	1.24	enough cells to score	inactive
Izumo4		0	1.73	fewer than 50 cells per well; well left out of scoring	inactive
Rims4		1.37	1.13	fewer than 50 cells per well; well left out of scoring	inactive
Nat1	-0.27	1.45	1.27	enough cells to score	inactive
Tlnrd1	1.28	1.62	1.5	enough cells to score	inactive
Rwdd2a	-0.04	1.39	1.21	enough cells to score	inactive
